Reference: the supplement of paper PMC4635364
Counter-ions that a name gives are not always drawn. This is one part of the list. Single values are uncertain here, since repeats match poorly.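 Human fetal ventral-midbrain neural progenitor line ReNCell VM, differentiated without mitogens. Images stained for doublecortin (early neurons) or tyrosine hydroxylase (dopaminergic neurons) were scored by blinded raters against untreated wells (0 = no change). Repeats and both raters were averaged, and compounds averaging 2 or higher were picked as hits for retesting.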

Test system: ReNCell VM
Assay: neuronal differentiation score (DCX+ cell fraction vs untreated, manual image score) (score (-3 to 3)); higher = more neuronal differentiation
Conditions: library: LOPAC; 2 uM; 2 weeks

Neuronal differentiation score, inactive:
O=C(OCCN1CCOCC1)C1(c2ccccc2)CCCCC1 0
C=CCN1CCc2c(cc(O)c(O)c2Br)[C@@H](c2ccccc2)C1 [R(+)-6-Bromo-APB hydrobromide] 0
CCCCCN(CCCCC)C(=O)C(CCC(=O)O)NC(=O)c1ccc(Cl)c(Cl)c1 (configuration not stated) [Lorglumide sodium] 0
CCCCC/C=C\C[C@@H](O)/C=C/c1cccc(C[C@@H](O)CCCCO)n1 0
O=c1ccn([C@@H]2O[C@H](COP(=O)(O)OP(=O)(O)O)[C@@H](O)[C@H]2O)c(=O)[nH]1 [Uridine 5'-diphosphate sodium] 0

Same assay, conditions: library: Prestwick; 2 uM; 2 weeks

Neuronal differentiation score, inactive:
C[C@@H]1C[C@H]2[C@@H]3C[C@H](F)C4=CC(=O)C=C[C@]4(C)[C@@]3(Cl)[C@@H](O)C[C@]2(C)[C@H]1C(=O)COC(=O)C(C)(C)C [Clocortolone pivalate] 0
O=C(O)Cc1cc(I)c(Oc2ccc(O)c(I)c2)c(I)c1 [Tiratricol, 3,3',5-triiodothyroacetic acid] 0
NCCCCCC(=O)O [Aminocaproic acid] 0
CC(C(=O)O)c1ccc2c(c1)Cc1cccnc1O2 (configuration not stated) [Pranoprofen] 0
CCCc1cc(C(N)=S)ccn1 [Prothionamide] 0

Same assay, conditions: library: Spectrum; 2 uM; 2 weeks

Neuronal differentiation score, inactive:
OC(Cn1cncn1)(Cn1cncn1)c1ccc(F)cc1F 0
C=C(C)[C@@H]1CC[C@]2(CO)CC[C@]3(C)[C@H](CC[C@@H]4[C@@]5(C)CC[C@H](O)C(C)(C)[C@@H]5CC[C@]43C)[C@@H]12 0
O=c1cc(-c2ccccc2)oc2cc(O)ccc12 0
CCCCCCCCCC(=O)N[C@@H](Cc1c[nH]c2ccccc12)C(=O)N[C@@H](CC(N)=O)C(=O)N[C@@H](CC(=O)O)C(=O)N[C@@H]1C(=O)NCC(=O)N[C@@H](CCCN)C(=O)N[C@@H](CC(=O)O)C(=O)N[C@H](C)C(=O)N[C@@H](CC(=O)O)C(=O)NCC(=O)N[C@H](CO)C(=O)N[C@@H]([C@H](C)CC(=O)O)C(=O)N[C@@H](CC(=O)c2ccccc2N)C(=O)O[C@@H]1C [DAPTOMYCIN (5 millimolar/DMSO)] 0
CCC[C@H](N[C@@H](C)C(=O)N1[C@H](C(=O)O)C[C@@H]2CCCC[C@@H]21)C(=O)OCC 0
CC(=O)/N=c1/sc(S(N)(=O)=O)nn1C 0
NC[C@H](O)c1ccc(O)c(O)c1 1
Cc1ccc2c(Cl)cc(Cl)c(O)c2n1 0
C[C@H](CCC(=O)O)[C@H]1CC[C@H]2[C@@H]3CC[C@@H]4C[C@H](O)CC[C@]4(C)[C@H]3C[C@H](O)[C@]12C 0
O=C(O)c1cccnc1 0
COc1ccc(CN(CCN(C)C)c2ccccn2)cc1 1
N=C(NCCCCCCNC(=N)NC(=N)Nc1ccc(Cl)cc1)NC(=N)Nc1ccc(Cl)cc1 0
C[C@](N)(Cc1ccc(O)cc1)C(=O)O [alpha-METHYL-L-TYROSINE] 0
CN1CCC[C@@H]1CCO[C@](C)(c1ccccc1)c1ccc(Cl)cc1 0
CC(COc1ccccc1)NC(C)C(O)c1ccc(O)cc1 (configuration not stated) 0
CNCCc1ccccn1 0
CCC(=O)O[C@]1(C(=O)CCl)[C@@H](C)C[C@H]2[C@@H]3CCC4=CC(=O)C=C[C@]4(C)[C@@]3(F)[C@@H](O)C[C@@]21C 0
CN[C@@H]1[C@@H](O[C@H]2O[C@H](CO)[C@@H](N)[C@H](O)[C@H]2O)OC2C[C@@H](N)[C@@H](O[C@H]3[C@H](O)[C@@H](O)[C@H](N)C[C@@H]3N)OC2[C@@H]1O (some centres not stated) 0
COc1cc2ccc(=O)oc2c(OC)c1OC 0
CC(C)Nc1ncccn1 0
Cc1c(O)c(=O)ccn1C 0

Random excerpt: 4 compounds from above, in no set order.
Neuronal differentiation score, inactive:
OC(Cn1cncn1)(Cn1cncn1)c1ccc(F)cc1F 0
NC[C@H](O)c1ccc(O)c(O)c1 1
CN1CCC[C@@H]1CCO[C@](C)(c1ccccc1)c1ccc(Cl)cc1 0
CCCCCCCCCC(=O)N[C@@H](Cc1c[nH]c2ccccc12)C(=O)N[C@@H](CC(N)=O)C(=O)N[C@@H](CC(=O)O)C(=O)N[C@@H]1C(=O)NCC(=O)N[C@@H](CCCN)C(=O)N[C@@H](CC(=O)O)C(=O)N[C@H](C)C(=O)N[C@@H](CC(=O)O)C(=O)NCC(=O)N[C@H](CO)C(=O)N[C@@H]([C@H](C)CC(=O)O)C(=O)N[C@@H](CC(=O)c2ccccc2N)C(=O)O[C@@H]1C [DAPTOMYCIN (5 millimolar/DMSO)] 0

Same assay, conditions: library: Tocriscreen; 2 uM; 2 weeks

Neuronal differentiation score, inactive:
O=C(NCCCCN1CCN(c2cccc(Cl)c2Cl)CC1)c1ccc2c(c1)Cc1ccccc1-2 0
Fc1ccc(Cl)cc1-c1nc(Nc2ccncc2)c2nccnc2n1 0
N#Cc1c(O)c2c(-c3ccc(-c4ccccc4O)cc3)csc2[nH]c1=O 0
Nc1nc(-c2ccc(Cl)c(Cl)c2)c(-c2ccncc2)s1 [CGH 2466 dihydrochloride] 0
COc1cc(C[C@H]2C(=O)OC[C@@H]2Cc2ccc(OC)c(OC)c2)ccc1O [Arctigenin] 0
CN1CCc2cccc3c2[C@H]1Cc1ccc(O)c(O)c1-3 [(R)-(-)-Apomorphine hydrochloride] 0

Test system: ReNCell VM
Assay: dopaminergic neuron differentiation score (TH+ cell fraction vs untreated, manual image score) (score (0 to 3)); higher = more TH+ dopaminergic neuron differentiation
Conditions: library: LOPAC; 2 uM; 4 weeks; BDNF 10 ng/ml + GDNF 10 ng/ml

Dopaminergic neuron differentiation score, inactive:
O=C(OCCN1CCOCC1)C1(c2ccccc2)CCCCC1 1
C=CCN1CCc2c(cc(O)c(O)c2Br)[C@@H](c2ccccc2)C1 [R(+)-6-Bromo-APB hydrobromide] 0
CCCCCN(CCCCC)C(=O)C(CCC(=O)O)NC(=O)c1ccc(Cl)c(Cl)c1 (configuration not stated) [Lorglumide sodium] 0
CCCCC/C=C\C[C@@H](O)/C=C/c1cccc(C[C@@H](O)CCCCO)n1 0
O=c1ccn([C@@H]2O[C@H](COP(=O)(O)OP(=O)(O)O)[C@@H](O)[C@H]2O)c(=O)[nH]1 [Uridine 5'-diphosphate sodium] 0
